Measured values taken from the supplement of paper PMC10849652.
The list shows a part of the results.

By UniProt entry, the sequences of proteins in these tests, tags left out. Where a name states a change or a piece, a line headed by the entry shows the natural chain unless it says otherwise.
UniProt P20774: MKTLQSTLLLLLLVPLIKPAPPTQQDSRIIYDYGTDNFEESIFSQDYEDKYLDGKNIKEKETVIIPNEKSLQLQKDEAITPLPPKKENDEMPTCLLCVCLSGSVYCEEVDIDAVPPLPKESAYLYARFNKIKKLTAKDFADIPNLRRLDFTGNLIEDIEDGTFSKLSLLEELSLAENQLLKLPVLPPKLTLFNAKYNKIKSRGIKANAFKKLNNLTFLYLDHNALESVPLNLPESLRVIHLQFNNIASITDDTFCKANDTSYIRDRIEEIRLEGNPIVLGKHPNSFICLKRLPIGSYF
UniProt Q8WV22: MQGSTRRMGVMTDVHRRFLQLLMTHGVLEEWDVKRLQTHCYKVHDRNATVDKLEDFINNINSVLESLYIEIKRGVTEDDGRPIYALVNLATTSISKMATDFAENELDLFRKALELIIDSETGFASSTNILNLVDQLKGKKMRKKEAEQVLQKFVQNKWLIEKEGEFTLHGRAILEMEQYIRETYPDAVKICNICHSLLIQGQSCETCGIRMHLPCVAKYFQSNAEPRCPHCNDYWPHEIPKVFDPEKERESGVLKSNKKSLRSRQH
UniProt Q96D31, whole entry, looked up: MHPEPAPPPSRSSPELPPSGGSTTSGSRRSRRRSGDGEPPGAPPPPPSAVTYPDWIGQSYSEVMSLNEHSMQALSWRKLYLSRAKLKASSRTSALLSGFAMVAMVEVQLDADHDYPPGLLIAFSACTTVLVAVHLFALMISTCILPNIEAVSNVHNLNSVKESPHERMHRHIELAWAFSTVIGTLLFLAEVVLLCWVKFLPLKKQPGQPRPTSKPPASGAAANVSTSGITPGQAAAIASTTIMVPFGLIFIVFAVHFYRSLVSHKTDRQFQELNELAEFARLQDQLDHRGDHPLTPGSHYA
UniProt Q6ZVK8: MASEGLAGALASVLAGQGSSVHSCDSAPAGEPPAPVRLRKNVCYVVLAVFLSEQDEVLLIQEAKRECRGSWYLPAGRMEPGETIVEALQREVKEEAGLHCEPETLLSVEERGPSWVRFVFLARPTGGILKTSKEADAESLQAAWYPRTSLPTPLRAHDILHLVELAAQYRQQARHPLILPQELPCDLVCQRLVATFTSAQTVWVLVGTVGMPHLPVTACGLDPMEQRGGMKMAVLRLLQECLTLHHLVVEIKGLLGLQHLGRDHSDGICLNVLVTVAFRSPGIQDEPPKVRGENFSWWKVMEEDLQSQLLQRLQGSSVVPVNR
UniProt Q9NPF4: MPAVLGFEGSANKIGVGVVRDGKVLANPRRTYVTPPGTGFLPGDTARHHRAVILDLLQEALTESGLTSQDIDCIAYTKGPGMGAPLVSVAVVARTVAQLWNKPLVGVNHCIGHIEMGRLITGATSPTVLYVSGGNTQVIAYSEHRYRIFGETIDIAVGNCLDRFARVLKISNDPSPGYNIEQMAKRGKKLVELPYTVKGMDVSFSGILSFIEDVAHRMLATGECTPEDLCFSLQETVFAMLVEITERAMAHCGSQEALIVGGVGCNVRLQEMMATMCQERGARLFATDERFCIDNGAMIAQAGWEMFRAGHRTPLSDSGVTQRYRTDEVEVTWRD
UniProt Q8WV74: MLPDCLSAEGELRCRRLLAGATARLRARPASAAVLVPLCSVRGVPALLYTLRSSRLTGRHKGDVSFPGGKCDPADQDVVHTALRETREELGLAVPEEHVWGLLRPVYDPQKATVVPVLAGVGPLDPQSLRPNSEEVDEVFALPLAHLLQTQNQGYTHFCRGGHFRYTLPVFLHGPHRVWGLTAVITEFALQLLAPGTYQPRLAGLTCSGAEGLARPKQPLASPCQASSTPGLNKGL
UniProt Q9BV86: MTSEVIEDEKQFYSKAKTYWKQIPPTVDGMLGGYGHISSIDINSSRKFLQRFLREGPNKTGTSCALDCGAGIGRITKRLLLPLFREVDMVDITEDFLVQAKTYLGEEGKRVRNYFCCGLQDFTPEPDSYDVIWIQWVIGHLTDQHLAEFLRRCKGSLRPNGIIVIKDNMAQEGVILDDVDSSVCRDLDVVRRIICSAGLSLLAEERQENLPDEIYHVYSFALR
UniProt Q8N6M0: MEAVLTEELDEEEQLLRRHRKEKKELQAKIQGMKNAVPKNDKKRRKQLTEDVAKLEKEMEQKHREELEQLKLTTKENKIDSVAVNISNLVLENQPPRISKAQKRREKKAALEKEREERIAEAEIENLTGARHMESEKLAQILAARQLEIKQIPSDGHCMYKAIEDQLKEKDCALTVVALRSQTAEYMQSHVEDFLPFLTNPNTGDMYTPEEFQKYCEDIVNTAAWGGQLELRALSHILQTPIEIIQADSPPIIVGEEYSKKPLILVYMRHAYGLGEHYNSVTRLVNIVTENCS
UniProt Q9H4L5: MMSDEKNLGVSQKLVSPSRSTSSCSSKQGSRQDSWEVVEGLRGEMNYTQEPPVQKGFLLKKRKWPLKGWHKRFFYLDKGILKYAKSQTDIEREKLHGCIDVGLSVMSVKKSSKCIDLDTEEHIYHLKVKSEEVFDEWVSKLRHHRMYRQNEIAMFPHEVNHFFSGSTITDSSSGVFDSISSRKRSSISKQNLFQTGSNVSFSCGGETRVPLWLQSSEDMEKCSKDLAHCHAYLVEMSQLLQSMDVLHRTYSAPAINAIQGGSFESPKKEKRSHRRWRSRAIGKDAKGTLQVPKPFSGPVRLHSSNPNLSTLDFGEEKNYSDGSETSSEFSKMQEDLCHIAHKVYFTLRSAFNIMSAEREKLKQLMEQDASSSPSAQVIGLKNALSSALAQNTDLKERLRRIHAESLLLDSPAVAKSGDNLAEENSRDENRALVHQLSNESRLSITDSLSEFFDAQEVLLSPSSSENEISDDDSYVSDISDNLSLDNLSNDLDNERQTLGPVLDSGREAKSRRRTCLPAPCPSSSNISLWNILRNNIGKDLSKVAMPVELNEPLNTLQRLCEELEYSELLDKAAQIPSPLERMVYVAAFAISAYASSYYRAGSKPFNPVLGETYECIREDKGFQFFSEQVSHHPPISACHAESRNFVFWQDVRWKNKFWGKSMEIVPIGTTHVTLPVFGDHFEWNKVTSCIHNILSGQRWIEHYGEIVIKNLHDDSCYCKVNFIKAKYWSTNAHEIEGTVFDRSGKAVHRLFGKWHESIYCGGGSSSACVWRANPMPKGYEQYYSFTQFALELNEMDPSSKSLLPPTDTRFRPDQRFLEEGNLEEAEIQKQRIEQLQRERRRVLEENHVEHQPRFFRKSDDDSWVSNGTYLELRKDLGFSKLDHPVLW
UniProt Q9H1E3: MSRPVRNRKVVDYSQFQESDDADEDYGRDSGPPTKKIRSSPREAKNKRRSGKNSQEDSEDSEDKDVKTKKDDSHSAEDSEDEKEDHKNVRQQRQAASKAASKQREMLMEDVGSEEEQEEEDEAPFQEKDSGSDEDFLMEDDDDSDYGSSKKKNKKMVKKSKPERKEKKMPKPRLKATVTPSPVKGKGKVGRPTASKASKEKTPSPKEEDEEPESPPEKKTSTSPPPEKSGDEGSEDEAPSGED
UniProt O15460: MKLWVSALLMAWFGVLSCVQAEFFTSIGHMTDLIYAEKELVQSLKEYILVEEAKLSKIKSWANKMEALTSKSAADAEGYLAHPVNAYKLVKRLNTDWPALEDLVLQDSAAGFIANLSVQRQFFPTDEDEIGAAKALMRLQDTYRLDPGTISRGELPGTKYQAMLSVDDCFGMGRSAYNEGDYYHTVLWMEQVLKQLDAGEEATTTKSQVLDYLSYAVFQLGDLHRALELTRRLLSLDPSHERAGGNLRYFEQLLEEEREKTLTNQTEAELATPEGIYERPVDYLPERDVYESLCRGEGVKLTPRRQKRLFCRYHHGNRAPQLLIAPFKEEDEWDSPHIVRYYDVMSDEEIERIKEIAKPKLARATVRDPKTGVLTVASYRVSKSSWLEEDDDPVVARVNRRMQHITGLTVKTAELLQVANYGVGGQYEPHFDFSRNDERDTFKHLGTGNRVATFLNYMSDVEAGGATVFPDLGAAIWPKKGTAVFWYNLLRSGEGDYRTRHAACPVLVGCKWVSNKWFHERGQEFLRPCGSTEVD
UniProt Q8N573: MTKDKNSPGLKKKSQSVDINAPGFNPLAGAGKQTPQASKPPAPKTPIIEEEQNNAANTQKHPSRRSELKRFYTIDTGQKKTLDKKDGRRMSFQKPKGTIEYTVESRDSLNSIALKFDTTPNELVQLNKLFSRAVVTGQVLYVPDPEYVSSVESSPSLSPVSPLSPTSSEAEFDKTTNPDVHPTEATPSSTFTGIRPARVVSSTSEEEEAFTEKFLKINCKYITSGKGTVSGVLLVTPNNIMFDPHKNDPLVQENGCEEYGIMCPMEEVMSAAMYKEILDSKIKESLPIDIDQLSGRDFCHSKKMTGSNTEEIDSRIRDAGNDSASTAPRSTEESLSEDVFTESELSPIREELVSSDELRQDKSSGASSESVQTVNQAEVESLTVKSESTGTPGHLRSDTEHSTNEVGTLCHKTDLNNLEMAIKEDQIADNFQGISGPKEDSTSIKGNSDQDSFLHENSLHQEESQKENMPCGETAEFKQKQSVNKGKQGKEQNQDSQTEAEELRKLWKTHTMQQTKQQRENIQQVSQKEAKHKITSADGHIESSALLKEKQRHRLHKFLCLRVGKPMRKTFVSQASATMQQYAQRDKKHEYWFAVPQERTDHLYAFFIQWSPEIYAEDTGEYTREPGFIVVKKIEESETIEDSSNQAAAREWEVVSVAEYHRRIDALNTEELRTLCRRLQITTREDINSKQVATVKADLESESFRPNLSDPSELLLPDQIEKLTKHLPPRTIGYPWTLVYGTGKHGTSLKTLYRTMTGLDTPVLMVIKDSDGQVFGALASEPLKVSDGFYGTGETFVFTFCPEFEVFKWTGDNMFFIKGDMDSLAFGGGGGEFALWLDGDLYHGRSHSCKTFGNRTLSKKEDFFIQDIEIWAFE
UniProt Q01804: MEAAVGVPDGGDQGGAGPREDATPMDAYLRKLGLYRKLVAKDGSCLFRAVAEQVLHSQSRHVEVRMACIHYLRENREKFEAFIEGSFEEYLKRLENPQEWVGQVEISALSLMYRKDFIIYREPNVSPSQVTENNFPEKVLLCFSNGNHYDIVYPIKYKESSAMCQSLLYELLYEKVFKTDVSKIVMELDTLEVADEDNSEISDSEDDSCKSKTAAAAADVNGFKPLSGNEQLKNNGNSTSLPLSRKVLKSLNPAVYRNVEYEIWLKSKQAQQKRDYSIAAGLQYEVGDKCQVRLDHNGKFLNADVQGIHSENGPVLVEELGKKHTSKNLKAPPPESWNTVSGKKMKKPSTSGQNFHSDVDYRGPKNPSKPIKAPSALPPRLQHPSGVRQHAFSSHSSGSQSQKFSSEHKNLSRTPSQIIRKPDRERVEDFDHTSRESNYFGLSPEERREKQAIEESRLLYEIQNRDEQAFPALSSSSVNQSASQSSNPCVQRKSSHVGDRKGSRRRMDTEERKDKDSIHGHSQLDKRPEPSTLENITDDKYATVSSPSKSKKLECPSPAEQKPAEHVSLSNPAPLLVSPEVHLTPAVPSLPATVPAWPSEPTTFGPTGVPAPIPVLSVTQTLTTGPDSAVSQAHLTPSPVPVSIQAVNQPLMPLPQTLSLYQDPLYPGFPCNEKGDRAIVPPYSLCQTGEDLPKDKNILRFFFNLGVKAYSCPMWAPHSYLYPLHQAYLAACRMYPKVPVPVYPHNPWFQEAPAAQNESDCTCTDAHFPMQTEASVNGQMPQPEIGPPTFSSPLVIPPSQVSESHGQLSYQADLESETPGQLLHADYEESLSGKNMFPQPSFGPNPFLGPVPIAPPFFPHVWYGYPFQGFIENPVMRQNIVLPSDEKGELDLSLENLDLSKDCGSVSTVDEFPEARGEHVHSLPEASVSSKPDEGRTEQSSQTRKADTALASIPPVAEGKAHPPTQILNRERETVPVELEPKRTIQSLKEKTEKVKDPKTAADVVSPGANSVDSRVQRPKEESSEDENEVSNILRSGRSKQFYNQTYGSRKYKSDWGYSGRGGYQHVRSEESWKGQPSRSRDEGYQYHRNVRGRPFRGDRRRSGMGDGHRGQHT
UniProt Q96DE0: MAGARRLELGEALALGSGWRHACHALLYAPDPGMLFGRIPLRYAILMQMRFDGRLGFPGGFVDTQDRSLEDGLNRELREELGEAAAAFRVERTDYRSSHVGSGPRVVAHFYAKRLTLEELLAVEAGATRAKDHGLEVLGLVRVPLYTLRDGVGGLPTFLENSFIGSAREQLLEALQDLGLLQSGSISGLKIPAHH
UniProt Q96BN8, whole entry, looked up: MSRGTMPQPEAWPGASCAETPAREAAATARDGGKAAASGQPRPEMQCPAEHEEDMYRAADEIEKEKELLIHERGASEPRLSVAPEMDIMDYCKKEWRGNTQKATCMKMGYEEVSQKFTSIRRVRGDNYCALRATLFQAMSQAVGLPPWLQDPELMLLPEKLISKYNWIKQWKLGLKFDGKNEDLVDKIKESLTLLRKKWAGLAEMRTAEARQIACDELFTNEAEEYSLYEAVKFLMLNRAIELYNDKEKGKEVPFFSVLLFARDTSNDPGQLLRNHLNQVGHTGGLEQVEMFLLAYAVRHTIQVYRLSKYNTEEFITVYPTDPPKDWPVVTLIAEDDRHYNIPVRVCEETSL

Key:
Assay in all cases: log2 fold change, soluble protein after heating vs DMSO (PISA); higher = thermal stabilisation; K562 cells, 10 uM, 30 min; active = over 0.2 and 3.5 SD of the protein, either way, in both replicates (recomputed)
[1] = compound: CC[C@@H]1C(=O)N(C)c2cnc(Nc3ccc(C(=O)NC4CCN(C)CC4)cc3OC)nc2N1C1CCCC1
Procedure, shortened: (§1)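 Thermal stability values are relative to control samples and come from duplicates. They are expressed as log2 fold changes. For measurement, K562 cells (2×10^6 cells/mL) received 10 μM compound for 30 min, and aliquots were heated for 3 min over 48°C-58°C, pooled, and extracted at 4°C in PBS with 0.5% NP-40. Soluble protein, the supernatant after 21,000xg for 90 min, was quantified by TMTpro 16plex LC-MS/MS with equalised channel sums.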

volasertib = compound: CC[C@@H]1C(=O)N(C)c2cnc(Nc3ccc(C(=O)N[C@H]4CC[C@H](N5CCN(CC6CC6)CC5)CC4)cc3OC)nc2N1C(C)C [volasertib]
Procedure, shortened: as §1

[2] = compound: CC[C@H](C)N1C=C(C2=C(C=C(C=C21)C3=CN=C(C=C3)N4CCNCC4)C(=O)NCC5=C(C=C(NC5=O)C)C)C
Procedure, shortened: as §1

epoxomicin = compound: CC[C@H](C)[C@@H](C(=O)N[C@@H]([C@@H](C)O)C(=O)N[C@@H](CC(C)C)C(=O)[C@]1(CO1)C)NC(=O)[C@H]([C@@H](C)CC)N(C)C(=O)C [epoxomicin]
Procedure, shortened: as §1

[3] = compound: CCn1cc(-c2ccnc3[nH]c(-c4cccc(CN(C)C)c4)cc23)c(-c2ccc(NC(=O)N(C)C)cc2)n1
Procedure, shortened: as §1

[4] = compound: CN(C)CC(=O)Nc1ccc2[nH]c(=O)c3ccccc3c2c1
Procedure, shortened: as §1

[5] = compound: CN1C2=C(C3=C1C(=O)N(N=C3)CC4=CC(=CC=C4)N)SC(=C2)S(=O)C
Procedure, shortened: as §1

[6] = compound: CN1CCC(CNc2ccc3ncc(-c4cccc(OC(F)(F)F)c4)n3n2)CC1
Procedure, shortened: as §1

[7] = compound: CCn1c(C(=O)N(C2CC2)C2CC2)cc2c3c(ncn3C)c(Nc3cc(C)n(C)n3)nc21
Procedure, shortened: as §1

rosiglitazone = compound: CN(CCOC1=CC=C(C=C1)C[C@H]2C(=O)NC(=O)S2)C3=CC=CC=N3 (racemic) [rosiglitazone]
Procedure, shortened: as §1

Target | log2 fold change [1] | log2 fold change (volasertib) | log2 fold change [2] | log2 fold change (epoxomicin) | log2 fold change [3] | log2 fold change [4] | log2 fold change [5] | log2 fold change [6] | log2 fold change [7] | log2 fold change (rosiglitazone)
NT5DC1 (UniProt Q5TFE4) | inactive: 0.165 | inactive: 0.051 | inactive: -0.026 | inactive: 0.045 | inactive: -0.054 | inactive: 0.014 | inactive: -0.037 | inactive: -0.063 | – | –
OXSR1 (UniProt O95747) | inactive: -0.122 | active: -0.274 | inactive: 0.049 | inactive: 0.03 | inactive: -0.077 | inactive: 0.043 | inactive: 0.008 | active: -0.24 | – | –
OGN (UniProt P20774) | inactive: 0.053 | inactive: 0.04 | inactive: -0.092 | inactive: -0.19 | – | inactive: -0.031 | inactive: 0.098 | – | inactive: 0.295 | inactive: 0.104
NSMCE1 (UniProt Q8WV22) | inactive: -0.068 | inactive: 0.167 | inactive: 0.071 | inactive: -0.083 | – | inactive: -0.084 | inactive: -0.119 | – | inactive: 0.009 | –
NT5C2 (UniProt P49902) | inactive: 0.016 | inactive: -0.033 | inactive: 0.015 | inactive: 0.007 | inactive: -0.018 | inactive: 0.025 | inactive: -0.044 | inactive: -0.014 | inactive: 0.013 | inactive: 0.014
ORAI1 (UniProt Q96D31) | inactive: 0.028 | inactive: -0.042 | inactive: -0.02 | inactive: 0.069 | – | inactive: -0.016 | – | – | inactive: -0.169 | inactive: -0.014
NUDT18 (UniProt Q6ZVK8) | inactive: 0.02 | inactive: 0.165 | inactive: -0.08 | inactive: 0.208 | inactive: -0.129 | inactive: -0.062 | – | inactive: -0.25 | inactive: -0.042 | –
OSGEP (UniProt Q9NPF4) | inactive: 0.022 | inactive: 0.055 | inactive: -0.042 | inactive: 0.013 | inactive: -0.012 | inactive: -0.008 | inactive: -0.071 | inactive: 0.004 | inactive: -0.036 | inactive: 0.031
OXA1L (UniProt Q15070) | inactive: -0.067 | inactive: -0.014 | inactive: -0.015 | inactive: -0.046 | inactive: -0.012 | inactive: -0.019 | inactive: -0.027 | active: -0.221 | – | –
OSTC (UniProt Q9NRP0) | inactive: -0.01 | inactive: -0.141 | inactive: 0.011 | inactive: -0.073 | inactive: 0.039 | inactive: 0.073 | inactive: -0.129 | inactive: -0.053 | – | –
NUMA1 (UniProt Q14980) | inactive: 0.065 | inactive: 0.034 | inactive: 0.039 | inactive: -0.044 | inactive: 0.068 | inactive: 0.003 | inactive: 0.115 | inactive: -0.191 | – | –
OPA1 isoform 2 (UniProt O60313) | inactive: -0.187 | inactive: -0.264 | inactive: 0.039 | inactive: 0.027 | inactive: -0.081 | inactive: 0.023 | inactive: -0.013 | active: -0.347 | – | –
NUDT8 (UniProt Q8WV74) | inactive: -0.373 | inactive: 0.015 | inactive: 0.027 | – | – | inactive: -0.01 | inactive: -0.119 | – | inactive: 0.067 | inactive: 0.049
NUDT6 (UniProt P53370) | inactive: 0.177 | inactive: 0.041 | inactive: -0.289 | inactive: 0.031 | – | inactive: -0.055 | inactive: -0.132 | – | – | –
NUDT21 (UniProt O43809) | inactive: 0.036 | inactive: 0.074 | inactive: -0.033 | inactive: -0.107 | inactive: 0.038 | inactive: -0.041 | inactive: -0.013 | inactive: 0.064 | – | –
PAAF1 (UniProt Q9BRP4) | inactive: 0.006 | inactive: -0.034 | inactive: -0.021 | active: -0.275 | inactive: -0.051 | inactive: -0.009 | inactive: -0.07 | inactive: -0.039 | – | –

Laid out differently: results already given
Target	log2 fold change [1]	log2 fold change (volasertib)	log2 fold change [2]	log2 fold change (epoxomicin)	log2 fold change [3]	log2 fold change [4]	log2 fold change [5]	log2 fold change [6]	log2 fold change [7]	log2 fold change (rosiglitazone)
NUDT18 (UniProt Q6ZVK8)	inactive: 0.02	inactive: 0.165	inactive: -0.08	inactive: 0.208	inactive: -0.129	inactive: -0.062	–	inactive: -0.25	inactive: -0.042	–
OSGEP (UniProt Q9NPF4)	inactive: 0.022	inactive: 0.055	inactive: -0.042	inactive: 0.013	inactive: -0.012	inactive: -0.008	inactive: -0.071	inactive: 0.004	inactive: -0.036	inactive: 0.031

(listing goes on)

Target | log2 fold change [1] | log2 fold change (volasertib) | log2 fold change [2] | log2 fold change (epoxomicin) | log2 fold change [3] | log2 fold change [4] | log2 fold change [5] | log2 fold change [6] | log2 fold change [7] | log2 fold change (rosiglitazone)
NTMT1 (UniProt Q9BV86) | inactive: -0.047 | inactive: -0.004 | inactive: 0.051 | inactive: 0.092 | inactive: -0.141 | inactive: 0.081 | inactive: -0.037 | inactive: 0.099 | – | –
NUP205 (UniProt Q92621) | inactive: -0.108 | active: -0.35 | inactive: 0.079 | inactive: -0.071 | inactive: -0.013 | inactive: 0.032 | inactive: -0.041 | active: -0.233 | – | –
OTUD6B (UniProt Q8N6M0) | inactive: -0.163 | active: -0.435 | inactive: 0.036 | inactive: 0.094 | inactive: -0.055 | inactive: 0.066 | inactive: -0.019 | inactive: -0.137 | – | –
NUP210 (UniProt Q8TEM1) | inactive: -0.001 | inactive: -0.12 | inactive: 0 | inactive: 0.03 | inactive: -0.053 | inactive: 0.03 | inactive: -0.026 | active: -0.348 | – | –
OSBPL3 (UniProt Q9H4L5) | inactive: 0.136 | inactive: 0.621 | inactive: -0.126 | inactive: -0.37 | – | inactive: 0 | inactive: 0.164 | – | – | –
NUCKS1 (UniProt Q9H1E3) | inactive: -0.061 | inactive: -0.012 | inactive: -0.028 | inactive: 0.016 | inactive: 0.014 | inactive: -0.073 | inactive: -0.043 | inactive: -0.083 | – | –
P4HA2 (UniProt O15460) | inactive: 0.08 | inactive: -0.012 | inactive: -0.006 | inactive: -0.257 | inactive: 0.138 | inactive: -0.036 | inactive: 0.112 | inactive: 0.118 | – | –
NSMCE4A (UniProt Q9NXX6) | inactive: 0.069 | inactive: 0.053 | inactive: 0.103 | inactive: -0.02 | inactive: -0.251 | inactive: -0.13 | inactive: -0.33 | inactive: -0.009 | – | –
OSBP (UniProt P22059) | inactive: 0.056 | active: 0.377 | inactive: 0.032 | inactive: 0.053 | inactive: -0.087 | inactive: 0.013 | inactive: -0.064 | inactive: 0.061 | – | –
ORC5 (UniProt O43913) | inactive: -0.196 | inactive: -0.42 | inactive: 0.074 | – | inactive: -0.103 | inactive: 0.105 | inactive: -0.029 | inactive: -0.203 | – | –
NUDCD2 (UniProt Q8WVJ2) | inactive: -0.177 | active: -0.566 | inactive: 0.056 | inactive: -0.098 | inactive: 0.021 | inactive: 0.081 | inactive: 0.023 | inactive: -0.291 | – | –
OXR1 (UniProt Q8N573) | inactive: -0.052 | inactive: -0.071 | inactive: 0.035 | inactive: -0.013 | inactive: 0.026 | inactive: 0.062 | inactive: -0.033 | active: -0.257 | – | –
OTUD4 (UniProt Q01804) | inactive: 0.078 | inactive: -0.067 | inactive: 0.009 | inactive: -0.085 | inactive: 0.098 | inactive: 0.011 | inactive: 0.041 | inactive: 0.075 | – | –
NUDT16 (UniProt Q96DE0) | inactive: 0.038 | inactive: 0.033 | inactive: -0.059 | inactive: 0.009 | inactive: -0.073 | inactive: -0.011 | inactive: -0.069 | inactive: -0.035 | – | –
NUMB (UniProt P49757) | inactive: -0.017 | inactive: 0.057 | inactive: 0.02 | inactive: -0.013 | inactive: -0.045 | inactive: -0.024 | inactive: -0.007 | inactive: -0.202 | – | –
OTULIN (UniProt Q96BN8) | inactive: 0.045 | inactive: -0.331 | inactive: 0.074 | inactive: 0.037 | inactive: -0.084 | inactive: 0.054 | inactive: 0.015 | inactive: -0.226 | – | –
